The term IC50 denotes the concentration needed to halve the response being measured.

Each structure is given as a SMILES string.

Data on 1 compound can be found in article PMC6269755, “In Vitro Antiprotozoal Activity of Triterpenoid Constituents of Kleinia odora Growing in Saudi Arabia” (Molecules, 2013).

The nature of this data set: Cytotoxicity against MRC-5 cells, resazurin. The conditions noted are these: human, MRC-5 SV2 fibroblast cells, pure compounds. The class given is cell-based. The protocol:
The integrated panel of microbial screens and standard screening methodologies were adopted as previously described. All assays were performed in triplicate at the Laboratory of Microbiology, Parasitology and Hygiene at the University of Antwerp (Belgium). […] Selectivity of activity was assessed by simultaneous evaluation of cytotoxicity on a fibroblast (MRC-5) cell line.
MRC-5 SV2 cells were cultivated in MEM, supplemented with L-glutamine (20 mM), 16.5 mM sodium hydrogen carbonate and 5% FCS. For the assay, 10^4 MRC-5 cells/well were seeded onto the test plates containing the pre-diluted sample and incubated at 37 °C and 5% CO2 for 72 h. Cell viability was assessed fluorimetrically after 4 h of addition of resazurin. Fluorescence was measured (excitation 550 nm, emission 590 nm) and the results were expressed as % reduction in cell viability compared to control.
(In general: Alamar Blue is a resazurin reagent that responds to reducing activity.)

On to `CC/C(=C(\c1ccccc1)c1ccc(OCCN(C)C)cc1)c1ccccc1` [Tamoxifen, reference compound], for which inhibition was half-maximal at 11.4 ± 3.2 µM (IC50 at 72 h).
